For this assay, the target named is T1, 3 × Flag-HOMER3 (human) (UniProt Q9NSC5).
T1 sequence: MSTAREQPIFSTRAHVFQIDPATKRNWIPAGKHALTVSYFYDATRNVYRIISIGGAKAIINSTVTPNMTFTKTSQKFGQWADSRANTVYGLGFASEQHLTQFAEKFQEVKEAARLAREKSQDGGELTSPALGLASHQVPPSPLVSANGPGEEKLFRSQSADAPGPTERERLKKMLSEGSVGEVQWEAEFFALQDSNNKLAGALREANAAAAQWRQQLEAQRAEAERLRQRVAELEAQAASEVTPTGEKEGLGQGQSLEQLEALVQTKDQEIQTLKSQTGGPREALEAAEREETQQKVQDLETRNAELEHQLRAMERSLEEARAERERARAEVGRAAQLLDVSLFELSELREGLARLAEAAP
As to the kind of experiment: co-IP; anti-Flag immunoprecipitation (anti-Flag antibody, protein A agarose / flag-beads, overnight at 4 °C) from extracts of H1299 cells overexpressing 3xFlag-HOMER3 and of control cells; washed with lysis buffer; Western blotting. For orientation: A western blot detects proteins with antibodies after separation by electrophoresis.

No constants are given. Whether binding was seen depends on the method and setting. Binding seen in cells or lysates may run through a third protein. Some binding calls cover weakened binding; strength is not graded here. Tags and fused reporters may be left off the sequences shown.

B1: Platelet-activating factor acetylhydrolase IB subunit alpha1 (PAFAH1B3) (protein, UniProt Q15102 1-231)
chain: MSGEENPASKPTPVQDVQGDGRWMSLHHRFVADSKDKEPEVVFIGDSLVQLMHQCEIWRELFSPLHALNFGIGGDGTQHVLWRLENGELEHIRPKIVVVWVGTNNHGHTAEQVTGGIKAIVQLVNERQPQARVVVLGLLPRGQHPNPLREKNRQVNELVRAALAGHPRAHFLDADPGFVHSDGTISHHDMYDYLHLSRLGYTPVCRALHSLLLRLLAQDQGQGAPLLEPAP
Take B1: the binding entry is listed as “binds”.

B2: SNW domain-containing protein 1 (SNW1) (protein, UniProt Q13573 1-536)
chain: MALTSFLPAPTQLSQDQLEAEEKARSQRSRQTSLVSSRREPPPYGYRKGWIPRLLEDFGDGGAFPEIHVAQYPLDMGRKKKMSNALAIQVDSEGKIKYDAIARQGQSKDKVIYSKYTDLVPKEVMNADDPDLQRPDEEAIKEITEKTRVALEKSVSQKVAAAMPVRAADKLAPAQYIRYTPSQQGVAFNSGAKQRVIRMVEMQKDPMEPPRFKINKKIPRGPPSPPAPVMHSPSRKMTVKEQQEWKIPPCISNWKNAKGYTIPLDKRLAADGRGLQTVHINENFAKLAEALYIADRKAREAVEMRAQVERKMAQKEKEKHEEKLREMAQKARERRAGIKTHVEKEDGEARERDEIRHDRRKERQHDRNLSRAAPDKRSKLQRNENRDISEVIALGVPNPRTSNEVQYDQRLFNQSKGMDSGFAGGEDEIYNVYDQAWRGGKDMAQSIYRPSKNLDKDMYGDDLEARIKTNRFVPDKEFSGSDRRQRGREGPVQFEEDPFGLDKFLEEAKQHGGSKRPSDSSRPKEHEHEGKKRRKE
For B2, the binding result is on record as “binds”.

The values are drawn from PMC10713516.
